# Some of these results come from one statement about several compounds together.
# Biological target: T1, human AR (Homo sapiens, UniProt P10275)
# T1 sequence (P10275 560-920 limits assumed): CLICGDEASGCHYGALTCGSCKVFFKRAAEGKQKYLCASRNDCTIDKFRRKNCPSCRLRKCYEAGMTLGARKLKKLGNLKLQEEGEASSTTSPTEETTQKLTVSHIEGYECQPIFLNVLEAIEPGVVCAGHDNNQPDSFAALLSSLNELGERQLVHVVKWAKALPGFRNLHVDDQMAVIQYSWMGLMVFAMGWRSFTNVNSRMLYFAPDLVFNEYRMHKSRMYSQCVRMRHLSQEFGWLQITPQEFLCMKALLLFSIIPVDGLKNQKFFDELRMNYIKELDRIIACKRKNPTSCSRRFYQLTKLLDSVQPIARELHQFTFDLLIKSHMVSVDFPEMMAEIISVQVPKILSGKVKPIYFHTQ
# Assay: AR functional assay (agonist mode), MMTV luciferase reporter in transfected CV-1 cells
# Format: cell-based
# Settings: CV-1 cells transfected with human AR and MMTV luciferase, values said to be exemplary only
row,SMILES,pIC50 in the agonist mode of the AR functional assay
1,"Cc1cc2cc([N+](=O)[O-])ccc2n1Cc1noc(-c2ccc(C(F)(F)F)cc2)n1 [Example 2, 2-Methyl-5-nitro-1-({5-[4-(trifluoromethyl)phenyl]-1,2,4-oxadiazol-3-yl}methyl)-1H-indole]",≥ 5.01
2,"CCOC(=O)c1cc2c(Cl)c(C#N)ccc2n1CC(F)(F)F [Example 6, Ethyl 4-chloro-5-cyano-1-(2,2,2-trifluoroethyl)-1H-indole-2-carboxylate]",≥ 5.01
3,"CCOC(=O)c1cc2c(C#N)c(C#N)ccc2n1CC(F)(F)F [Example 7, Ethyl 4,5-dicyano-1-(2,2,2-trifluoroethyl)-1H-indole-2-carboxylate]",≥ 5.01
4,"N#Cc1ccc2c(cc(CO)n2CC(F)(F)F)c1Cl [Example 10, 4-Chloro-2-(hydroxymethyl)-1-(2,2,2-trifluoroethyl)-1H-indole-5-carbonitrile]",≥ 5.01
5,"N#Cc1ccc2c(c1)cc(CO)n2CC(F)(F)F [Example 11, 2-(hydroxymethyl)-1-(2,2,2-trifluoroethyl)-1H-indole-5-carbonitrile]",≥ 5.01
6,"N#Cc1ccc2c(cc(C=O)n2CC(F)(F)F)c1Cl [Example 12, 4-Chloro-2-formyl-1-(2,2,2-trifluoroethyl)-1H-indole-5-carbonitrile]",≥ 5.01
7,"C/C=C\c1cc2c(Cl)c(C#N)ccc2n1CC(F)(F)F [Example 13, 4-Chloro-2-[(1Z)-1-propen-1-yl]-1-(2,2,2-trifluoroethyl)-1H-indole-5-carbonitrile]",≥ 5.01
8,"C/C=C/c1cc2c(Cl)c(C#N)ccc2n1CC(F)(F)F [Example 14, 4-Chloro-2-[(1E)-1-propen-1-yl]-1-(2,2,2-trifluoroethyl)-1H-indole-5-carbonitrile]",≥ 5.01
9,"CCCc1cc2c(Cl)c(C#N)ccc2n1CC(F)(F)F [Example 15, 4-Chloro-2-propyl-1-(2,2,2-trifluoroethyl)-1H-indole-5-carbonitrile]",≥ 5.01
10,"C=Cc1cc2c(Cl)c(C#N)ccc2n1CC(F)(F)F [Example 16, 4-Chloro-2-ethenyl-1-(2,2,2-trifluoroethyl)-1H-indole-5-carbonitrile]",≥ 5.01
11,"CCc1cc2c(Cl)c(C#N)ccc2n1CC(F)(F)F [Example 17, 4-Chloro-2-ethyl-1-(2,2,2-trifluoroethyl)-1H-indole-5-carbonitrile]",≥ 5.01
12,"N#Cc1ccc2c(cc(C#N)n2CC(F)(F)F)c1Cl [Example 18, 4-Chloro-1-(2,2,2-trifluoroethyl)-1H-indole-2,5-dicarbonitrile]",≥ 5.01
13,"N#Cc1ccc2c(c1)cc(CF)n2CC(F)(F)F [Example 19, 2-(Fluoromethyl)-1-(2,2,2-trifluoroethyl)-1H-indole-5-carbonitrile]",≥ 5.01
14,"N#Cc1ccc2c(cc(CF)n2CC(F)(F)F)c1Cl [Example 20, 4-Chloro-2-(fluoromethyl)-1-(2,2,2-trifluoroethyl)-1H-indole-5-carbonitrile]",≥ 5.01
15,"N#Cc1ccc2c(cc(C(F)F)n2CC(F)(F)F)c1Cl [Example 21, 4-Chloro-2-(difluoromethyl)-1-(2,2,2-trifluoroethyl)-1H-indole-5-carbonitrile]",≥ 5.01
16,"N#Cc1ccc2[nH]c(C(F)F)cc2c1Cl [Example 22, 4-Chloro-2-(difluoromethyl)-1H-indole-5-carbonitrile]",≥ 5.01
17,"N#Cc1ccc2c(cc(C(F)F)n2Cc2noc(-c3cccc(C(F)(F)F)c3)n2)c1Cl [Example 24, 4-Chloro-2-(difluoromethyl)-1-({5-[3-(trifluoromethyl)phenyl]-1,2,4-oxadiazol-3-yl}methyl)-1H-indole-5-carbonitrile]",≥ 5.01
18,"N#Cc1cncc(-c2nnc(Cn3c(C(F)F)cc4c(Cl)c(C#N)ccc43)o2)c1 [Example 26, 4-Chloro-1-{[5-(5-cyano-3-pyridinyl)-1,3,4-oxadiazol-2-yl]methyl}-2-(difluoromethyl)-1H-indole-5-carbonitrile]",≥ 5.01
19,"N#CCn1c(C(F)F)cc2c(Cl)c(C#N)ccc21 [Example 27, 4-Chloro-1-(cyanomethyl)-2-(difluoromethyl)-1H-indole-5-carbonitrile]",≥ 5.01

row,SMILES,pIC50 in the agonist mode of the AR functional assay
1,"COC(=O)Cn1c(C(F)F)cc2c(Cl)c(C#N)ccc21 [Example 28, Methyl [4-chloro-5-cyano-2-(difluoromethyl)-1H-indol-1-yl]acetate]",≥ 5.01
2,"CC(C(N)=O)n1c(C(F)F)cc2c(Cl)c(C#N)ccc21 (stereo not shown) [Example 30, 2-[4-Chloro-5-cyano-2-(difluoromethyl)-1H-indol-1-yl]propanamide]",≥ 5.01
3,"CC(C(=O)N(C)C)n1c(C(F)F)cc2c(Cl)c(C#N)ccc21 (stereo not shown) [Example 31, 2-[4-Chloro-5-cyano-2-(difluoromethyl)-1H-indol-1-yl]-N,N-dimethylpropanamide]",≥ 5.01
4,"N#Cc1ccc2c(cc(C(F)F)n2Cc2noc(-c3ccccn3)n2)c1Cl [Example 32, 4-Chloro-2-(difluoromethyl)-1-{[5-(2-pyridinyl)-1,2,4-oxadiazol-3-yl]methyl}-1H-indole-5-carbonitrile]",≥ 5.01
5,"N#Cc1ccc2c(cc(C(F)F)n2Cc2noc(-c3cncc(Br)c3)n2)c1Cl [Example 33, 1-{[5-(5-Bromo-3-pyridinyl)-1,2,4-oxadiazol-3-yl]methyl}-4-chloro-2-(difluoromethyl)-1H-indole-5-carbonitrile]",≥ 5.01
6,"N#Cc1ccc2c(cc(C(F)F)n2Cc2noc(-c3ccc(F)cc3F)n2)c1Cl [Example 34, 4-Chloro-2-(difluoromethyl)-1-{[5-(2,4-difluorophenyl)-1,2,4-oxadiazol-3-yl]methyl}-1H-indole-5-carbonitrile]",≥ 5.01
7,"N#Cc1ccc2c(cc(C(F)F)n2Cc2nnc(-c3ccc(F)cc3F)o2)c1Cl [Example 35, 4-Chloro-2-(difluoromethyl)-1-{[5-(2,4-difluorophenyl)-1,3,4-oxadiazol-2-yl]methyl}-1H-indole-5-carbonitrile]",≥ 5.01
8,"N#Cc1ccc2c(cc(C(F)F)n2Cc2nnc(-c3cc(F)cc(F)c3)o2)c1Cl [Example 36, 4-Chloro-2-(difluoromethyl)-1-{[5-(3,5-difluorophenyl)-1,3,4-oxadiazol-2-yl]methyl}-1H-indole-5-carbonitrile]",≥ 5.01
9,"N#Cc1ccc2c(cc(C(F)F)n2Cc2nc(-c3ccccn3)no2)c1Cl [Example 37, 4-Chloro-2-(difluoromethyl)-1-{[3-(2-pyridinyl)-1,2,4-oxadiazol-5-yl]methyl}-1H-indole-5-carbonitrile]",≥ 5.01
10,"N#Cc1ccc2c(cc(C(F)F)n2Cc2nnc(-c3cccc(F)n3)o2)c1Cl [Example 38, 4-Chloro-2-(difluoromethyl)-1-{[5-(6-fluoro-2-pyridinyl)-1,3,4-oxadiazol-2-yl]methyl}-1H-indole-5-carbonitrile]",≥ 5.01
11,"Cc1noc(C)c1-c1nc(Cn2c(C(F)F)cc3c(Cl)c(C#N)ccc32)no1 [Example 39, 4-Chloro-2-(difluoromethyl)-1-{[5-(3,5-dimethyl-4-isoxazolyl)-1,2,4-oxadiazol-3-yl]methyl}-1H-indole-5-carbonitrile]",≥ 5.01
12,"N#Cc1ccc2c(cc(C(F)F)n2Cc2cscn2)c1Cl [Example 40, 4-Chloro-2-(difluoromethyl)-1-(1,3-thiazol-4-ylmethyl)-1H-indole-5-carbonitrile]",≥ 5.01
13,"N#Cc1ccc2c(cc(C(F)F)n2Cc2ccc(C(F)(F)F)o2)c1Cl [Example 42, 4-Chloro-2-(difluoromethyl)-1-{[5-(trifluoromethyl)-2-furanyl]methyl}-1H-indole-5-carbonitrile]",≥ 5.01
14,"N#Cc1ccc2c(cc(C(F)F)n2Cc2ccccn2)c1Cl [Example 43, 4-Chloro-2-(difluoromethyl)-1-(2-pyridinylmethyl)-1H-indole-5-carbonitrile]",≥ 5.01
15,"N#Cc1ccc2c(cc(C(F)F)n2Cc2nnc(C3CC3)s2)c1Cl [Example 44, 4-Chloro-1-[(5-cyclopropyl-1,3,4-thiadiazol-2-yl)methyl]-2-(difluoromethyl)-1H-indole-5-carbonitrile]",≥ 5.01
16,"N#Cc1ccc2c(cc(C(F)F)n2CCOc2ccc(F)nc2)c1Cl [Example 45, 4-Chloro-2-(difluoromethyl)-1-{2-[(6-fluoro-3-pyridinyl)oxy]ethyl}-1H-indole-5-carbonitrile]",≥ 5.01
17,"CS(=O)(=O)c1ccc(OCCn2c(C(F)F)cc3c(Cl)c(C#N)ccc32)cc1 [Example 46, 4-Chloro-2-(difluoromethyl)-1-(2-{[4-(methylsulfonyl)phenyl]oxy}ethyl)-1H-indole-5-carbonitrile]",≥ 5.01
18,"N#Cc1ccc2c(cc(C(F)F)n2CCOc2ccc(F)cc2F)c1Cl [Example 47, 4-Chloro-2-(difluoromethyl)-1-{2-[(2,4-difluorophenyl)oxy]ethyl}-1H-indole-5-carbonitrile]",≥ 5.01
